Experimental data as given in PubChem BioAssay AID2685 (National Center for Advancing Translational Sciences (NCATS), 2010).
The whole screen tested about 320,000 compounds, of which about 2,100 (0.66%) were called active. This list was built around the results that the source calls inconclusive (neither active nor inactive); the mix of calls is not that of the screen. Calls follow the shape of the dose curve; as a rule, active = well fitted inhibition curve with a large enough effect in the signal ratio, with a control signal flat (not every such curve was filed as active); inconclusive = small, poorly fitted or top-dose-only effect, or effect the other way, or a change in a side signal; inactive = flat fitted curve, though single readings scatter; the % refers to the signal ratio. Potencies beside an inconclusive call are fits to weak or partial responses and may not hold up.

Assay: qHTS Assay for Lipid Storage Modulators in Drosophila S3 Cells
Conditions: BODIPY lipid droplet fluorescence, 18-24 h, cells fed with added oleic acid; lipid storage change, negative = inhibition: at 46.1 µM (top of the series) unless noted
Outline: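 Drosophila S3 cells got compounds at several concentrations plus oleic acid (400 uM solution). Laser-scanning cytometry with 488 nm excitation read lipid droplets at 500-530 nm and cells at 575-640 nm. Percent activity was relative to 20 uM Triacsin C.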
% is scaled to controls: 0 for no effect and ±100 for the full control effect; potency is read from the fitted curve at half-maximal effect.

Structure (SMILES)	lipid storage change, negative = inhibition	Potency
CN1/C(=C/C(=O)C2CC2)C(C)(C)c2ccccc21	inconclusive: 1.39%	–
COC(=O)c1ccc(N2CCN(C)CC2)c(NC(=O)c2cccs2)c1	–	inconclusive: 6.51 µM [activator, single point]
C=CCC(NCc1ccccc1)c1ccc(OC)cc1 (configuration not stated)	inconclusive: -20.8%	–
FC(F)C(F)(F)C1=CC(c2ccccc2)=NCCN1	inconclusive: -49.1%	–
CCOC(=O)c1sc2nc(C)[nH]c(=S)c2c1C	inconclusive: 33.4%	–
COc1ccc(CCNc2ncnc3sc(C)cc23)cc1OC	–	active: 4.11 µM
CN1C=CC(=C2C(=O)c3ccccc3C2=O)C=C1	inconclusive: -13.3%	–
COc1cccc(=O)c2c(C)n(CC(=O)c3ccccc3)c(C)c12	inconclusive: -10.6%	–
CCNC(=O)C1(c2ccccc2)CCCC1	–	inconclusive: 0.651 µM [falling, partial curve, poor fit]
O=C(CSc1ccc(Br)cc1)NC1CCS(=O)(=O)C1 (configuration not stated)	inconclusive: 61.5%	–
O=C(CSc1nnc(-c2cnccn2)n1Cc1ccco1)c1ccccc1	inconclusive: 20.5%	–
CCCc1cc(C(=O)N2CCCC(C(=O)c3ccc(Cl)cc3)C2)n(C)n1 (configuration not stated)	–	inconclusive: 29.1 µM [falling, single point]
Cc1ccc(-c2cc(C(F)(F)F)n3ncc(C(=O)NCc4ccco4)c3n2)cc1	inactive	–
CC(=O)Nc1nc(=O)c2ccccc2s1	inactive	–
Cc1cccc(N2C(=O)C(O)=C(C(=O)c3cccs3)C2c2ccc(Cl)cc2)n1 (configuration not stated)	inconclusive: 26.7%	–
Cc1ccc(C(=O)NCC(=O)OCC(=O)NCCc2ccccc2)s1	inconclusive: 16.5%	–
C=Cn1cc[n+](CC(=O)c2ccc(Br)s2)c1	inactive	–
COc1ccc(-c2c3c([nH]c(=S)c2C#N)CCC3)cc1	inconclusive: -27.4%	–
O=C(Nc1ccn(Cc2c(F)c(F)cc(F)c2F)n1)c1ccc(COc2ccccc2Cl)cc1	inconclusive: -26%	–
Cc1ccc(C(=O)NC2CCCCC2)cc1	inactive	–
CC(=O)N1CCc2cc(S(=O)(=O)CCC(=O)NCc3ccco3)ccc21	inconclusive: 4.18%	–

Structure (SMILES)	lipid storage change, negative = inhibition	Potency
CCOc1ccc(-c2noc(CCC(=O)NC3CCCC3)n2)cc1OC	inconclusive: -126%	–
CCOc1ccc(Nc2ccnc3cc(Cl)ccc23)cc1	inconclusive: 8.92%	–
Cc1cccc(C(=O)O)c1[N+](=O)[O-]	–	inconclusive: 9.2 µM [activator, single point]
CN(C)CCn1c(=S)[nH]c2ncccc2c1=O	inconclusive: -9.84%	–
Nc1ncc(Br)cc1S(=O)(=O)Nc1cc(C(F)(F)F)cc(C(F)(F)F)c1	–	active: 0.58 µM
C=C(C)C1Cc2cc3ccc(=O)oc3cc2O1 (configuration not stated)	–	inconclusive: 9.2 µM [activator, single point]
Cc1ccc(-n2c(N)c(C(=O)N3CCN(C)CC3)sc2=S)cc1	–	inconclusive: 29.1 µM [falling, single point]
CCC1=NN2C(=N)/C(=C\c3cccn3-c3ccc(Cl)cc3)C(=O)N=C2S1	inconclusive: -5.47%	–
CC(C)(CO)NCc1ccccc1OCC(=O)Nc1ccccc1	inconclusive: 18.7%	–
O=C(CSc1nc2[nH]ncc2c(=O)n1-c1ccccc1)c1ccc2c(c1)OCCO2	–	inconclusive: 23.1 µM [activator, single point]
O=C(CC(c1ccccc1)c1ccccc1O)NCc1ccccc1 (configuration not stated)	inconclusive: -8.2% [at 9.22 µM]	–
CC1(c2ccccc2)NC(=O)N(CC(=O)Nc2ccccc2N2CCCCC2)C1=O (configuration not stated)	inconclusive: 8.16%	–
COc1ccccc1NC(=O)C(=O)NCc1ccncc1	inconclusive: 32.1% [activator]	–
O=C(CCS(=O)(=O)c1ccccc1)Nc1nc2cc3c(cc2s1)OCO3	inactive	–
Nc1ccc(-n2cc(-c3ccccc3)[nH]c2=S)cc1	inconclusive: 19%	–
O=C(Nc1nc2ccccc2[nH]1)c1cccc(F)c1	inconclusive: -100%	–
O=C(CSc1ccccc1C(=O)O)NCC1CCCCC1	inconclusive: -14.3%	–
CCc1nc(NCc2ccco2)c2oc3ccccc3c2n1	inconclusive: 40.3%	–
COc1cc(Cl)c(C)cc1NC(=O)CSc1cc(Cl)ccc1Cl	–	inconclusive: 7.31 µM [activator, partial curve, poor fit]
COc1cc(CC(NC(C)=O)C(=O)NC2CCN(C(=O)c3ccc(C)cc3)CC2)cc(OC)c1 (configuration not stated)	inconclusive: 103%	–
O=C(CCn1c(SCC(=O)NCc2ccco2)nc2ccccc2c1=O)NCCc1ccccc1	–	inconclusive: 2.06 µM [activator, full curve]

One compound at a time, as listed above:
`CCOc1ccc(-c2noc(CCC(=O)NC3CCCC3)n2)cc1OC` in the list: lipid storage change, negative = inhibition: inconclusive: -126%
`O=C(CC(c1ccccc1)c1ccccc1O)NCc1ccccc1` (configuration not stated) in the list: lipid storage change, negative = inhibition: inconclusive: -8.2% [at 9.22 µM]
`CN(C)CCn1c(=S)[nH]c2ncccc2c1=O` in the list: lipid storage change, negative = inhibition: inconclusive: -9.84%
`Nc1ccc(-n2cc(-c3ccccc3)[nH]c2=S)cc1` in the list: lipid storage change, negative = inhibition: inconclusive: 19%

The results go on.

Structure (SMILES)	lipid storage change, negative = inhibition	Potency
Cc1cc(=O)oc(C)c1C(=O)N1CCc2c([nH]c3ccccc23)C1C(C)C (configuration not stated)	inconclusive: 13% [at 9.22 µM]	–
N=P(N1CCOCC1)(N1CCOCC1)C12CC3CC(CC(C3)C1)C2	inconclusive: -26.6%	–
O=C(OCC(=O)N1CCN(C(=O)c2ccco2)CC1)c1ccc(S(=O)(=O)N2CCCCC2)cc1	inconclusive: 1.27%	–
Cc1noc(C)c1CNCc1ccccc1	inconclusive: -9.19%	–
O=C(CNS(=O)(=O)c1ccc(F)cc1)N1CCCCCC1	inconclusive: 39.1%	–
CN(C)c1ccc(C(=O)OCC(=O)NCCNC(=O)COC(=O)c2ccc(N(C)C)cc2)cc1	inconclusive: 101%	–
CC(=O)NC(CC(=O)Nc1ccc2c(c1)OCCO2)c1ccccc1 (configuration not stated)	inconclusive: 82%	–
S=C1N(c2ccccc2)CN(CCN2CCOCC2)CN1c1ccccc1	inconclusive: 12.1%	–
CCCn1c(SCC(=O)c2c(N)n(C3CC3)c(=O)[nH]c2=O)nc2cc(S(N)(=O)=O)ccc21	inconclusive: 11.4%	–
CC(C)(CNc1ccc(S(=O)(=O)C(F)(F)F)cc1[N+](=O)[O-])N1CCOCC1	inconclusive: 93.1%	–
COc1cccc(N2CCN(C(=O)c3ccc4nc(N5CCC(C)CC5)sc4c3)CC2)c1	inconclusive: 19%	–
N/C(=N\OC(=O)c1cccnc1)c1ccc(Cl)cc1Cl	inconclusive: 21.5%	–
Cn1c(CC(=O)NNC(=O)c2ccccc2[N+](=O)[O-])nc2ccccc21	inconclusive: 14.9%	–
O=C(Nc1ccccc1)C(=O)c1c[nH]c2ccccc12	–	inconclusive: 0.58 µM [falling, partial curve, poor fit]
COc1ccc(CCNCc2ccc(OCc3ccccc3)cc2)cc1	–	inconclusive: 6.51 µM [falling, single point]
CC1=C(C(=O)Nc2ccccc2)C(c2cccnc2)n2nc(-c3cccnc3)nc2N1 (configuration not stated)	inconclusive: 37.9%	–
CCC(C)N(C(=O)c1csnn1)C(C(=O)NCc1ccc(F)cc1)c1ccco1 (configuration not stated)	inconclusive: 14.4%	–
COc1ccc(N2CSC3=C(C#N)C(c4ccc(OC)c(OC)c4)CC(=O)N3C2)c(OC)c1 (configuration not stated)	–	inconclusive: 1.84 µM [activator, full curve, poor fit]
CC(OC(=O)c1ccc(Cl)c(S(=O)(=O)N2CCc3ccccc32)c1)C(=O)Nc1ncc(Cl)cc1Cl (configuration not stated)	inconclusive: 8.26%	–
COc1ccc(Cl)cc1NC(=O)CN(C)C(=O)c1cc2c(F)cccc2s1	–	inconclusive: 0.0052 µM [falling, full curve, poor fit]
O=C1CC(NC2CCN(C(=O)c3cccc(F)c3)CC2)C(=O)N1 (configuration not stated)	–	inconclusive: 0.103 µM [activator, full curve, poor fit]

Structure (SMILES)	lipid storage change, negative = inhibition	Potency
OCCOc1nnnn1-c1ccccc1	inconclusive: -12%	–
N/C(=N\OC(=O)COc1ccc(Br)cc1Cl)c1ccncc1	–	inconclusive: 29.1 µM [activator, single point]
O=C(NCCCn1ccnc1)c1cc(-c2ccncc2)nc2ccccc12	–	inconclusive: 9.2 µM [activator, single point]
C(=N\N1CCN(Cc2ccccc2)CC1)/c1cccs1	inconclusive: 28.9%	–
O=C(CN1C(=O)C2CCCCC2C1=O)OCC(=O)c1ccc(Cl)s1 (configuration not stated)	–	inconclusive: 29.1 µM [rising, single point]
S=C(Nc1ccccc1)Nc1nc2ccccc2n1CCOc1ccccc1	inconclusive: 1.6%	–
COC(=O)/C=C/C(=O)Nc1cccnc1	inactive	–
COc1ccccc1NC(=O)C1CCCN(S(=O)(=O)c2ccc(-n3cnnn3)cc2)C1 (configuration not stated)	inactive	–
Cc1ccc(NC(=S)N2CCC(NC(=O)c3ccc(F)cc3)CC2)cc1	–	inconclusive: 0.116 µM [falling, full curve, poor fit]
CCC(C)Sc1nc2c(c(=O)[nH]c(=O)n2C)n1Cc1ccc(Cl)cc1 (configuration not stated)	inconclusive: -6.59%	–
Cn1nnc(NC(=S)NC(=O)/C=C/c2ccco2)n1	inconclusive: 43.2%	–
CC(C)(C)c1csc(NNC(=O)c2ccc(Cl)cc2)n1	inconclusive: -9.47%	–
O=C(NC(=S)Nc1ccccc1N1CCCCC1)c1ccc(F)cc1Cl	inconclusive: 4.44%	–
NC(=O)CC(NC(=O)Cc1cccc2ccccc12)c1ccc(N2CCCCCC2)c([N+](=O)[O-])c1 (configuration not stated)	inconclusive: -22.1%	–
O=C(Cc1c(F)cccc1Cl)N/N=C/c1cccnc1	inconclusive: 22.5%	–
CC1(C)Cc2c(C#N)c(NC3CCCCC3)nc(-c3ccco3)c2CO1	inconclusive: 20.4%	–
Cc1cc(NC(=O)CSc2cn(C)c3ccccc23)no1	–	inconclusive: 29.1 µM [activator, single point]
COc1ccc(CCNC(=O)c2ccccc2SC)cc1	inconclusive: -35.3% [cytotoxic] [at 0.369 µM]	–
CCOc1ccc2nc(NC(=O)c3ccco3)sc2c1	–	inconclusive: 3.26 µM [falling, full curve, poor fit]
